Data from US20190010531A1, “CELL CULTURE PROCESS FOR MAKING A GLYCOPROTEIN” (Regeneron Pharmaceuticals, Inc., priority 2017, published 2019).
Read-outs that look alike come from different tables or passages of the source.

Experiments:
[1] = tested on: CHO cells expressing a trap protein (receptor-Fc fusion protein, VEGF-trap); experiment: Glycan analysis (HPLC, fluorescent anthranilic acid tags) of VEGF-trap production lots versus soy hydrolysate ornithine content; format: cell-based; conditions: aflibercept, FIG. 4
Experimental: More specifically, ˜90% of production lots cultured in medium comprising selected soy hydrolysate meet FDA production criteria. In contrast, only 57% of production lots cultured in medium comprising soy hydrolysate having more than 5 mg/L ornithine meet FDA production criteria (area under the curve for a specific N-glycan peak).
Each production lot was also compared (with respect to glycan profile) to a reference standard which represents a therapeutically acceptable batch of protein for the exemplary VEGF-trap protein. Representative glycan analysis is shown in Table 4 for protein lots produced from cells cultured in medium supplemented with soy hydrolysate resulting in final concentration of ornithine between 0.5 mg/L and 2.0 mg/L. Compared to the reference, each produced trap protein comprises a consistent glycan profile having peaks within an acceptable range (75% of lots analyzed).

[2] = tested on: CHO cell production of rilonacept; conditions: FIG. 5
[3] = tested on: CHO cells expressing a trap protein (receptor-Fc fusion protein, VEGF-trap)

SMILES: NCCC[C@H](N)C(=O)O [ornithine, Ornithine]
- correlation between level of ornithine in soy hydrolysate and glycoprotein quality (A1 N-glycan levels) [1]: strong negative correlation
- correlation of ornithine in soy hydrolysate with final glycoprotein titer ([2]; 16 soy hydrolysate lots): negative correlation
- correlation of ornithine concentration in soy hydrolysate with accumulation of lactate in media [2]: positive correlation
- Al N-Glycan relative amount (% area under the curve) ([3]; 1.6 mg/L ornithine, 0 mg/L citrulline): 12.0 % area under the curve
- Al N-Glycan relative amount (% area under the curve) ([3]; 1.6 mg/L ornithine, VEGF-trap from CHO cells): 12.5 % area under the curve
- Al N-Glycan relative amount (% area under the curve) ([3]; 6.6 mg/L ornithine, VEGF-trap from CHO cells): 9.8 % area under the curve
- Al N-Glycan relative amount (% area under the curve) ([3]; 31.6 mg/L ornithine, 0 mg/L citrulline): 8.8 % area under the curve
- Al N-Glycan relative amount (% area under the curve) ([3]; 31.6 mg/L ornithine, VEGF-trap from CHO cells): 9.3 % area under the curve
